Patent publication US8183272B2, “Indanyl compounds” (Daiichi Sankyo Company, Limited, priority 2008, dated 2012)
Some of these results come from one statement about several compounds together.

System: PTH secretion
Test: Evaluation of PTH secretion promoting activity in rat (blood serum PTH, ELISA)
Assay type: in vivo
Conditions: female F344 rat, oral 3 mg/5 mL/kg; for blood serum PTH concentration at 15 minutes to 30 minutes: 15 to 30 minutes
Procedure: Evaluation of PTH Secretion Promoting Activity in Rat
A 10 to 14-week old female F344 rat (Charles River Japan, Inc.) fasted overnight was anesthetized using ether, and blood serum before the administration was prepared by drawing blood from the jugular vein of the animal. Subsequently, the test compound was orally administered at a dose of 3 mg/5 mL/kg using a solvent (0.5% aqueous methyl cellulose solution containing 5% DMA). Blood was drawn from the jugular vein under ether anesthesia at 5, 15, 30, 60, 120, and 240 minutes after the administration of the test compound, and the blood serum was prepared. The blood serum PTH concentration was measured using rat Intact PTH ELISA kit (manufactured by Immutopics, Inc.).

Row | SMILES | blood serum PTH concentration at 15 minutes to 30 minutes [pg/mL] | blood serum PTH concentration after 240 minutes [pg/mL]
1 | CC[C@@H](OC[C@H](O)CNC(C)(C)CC1Cc2ccccc2C1)c1ccc(C)cc1CCC(=O)O [Example 40] | ≥ 400 | ≤ 200
2 | COc1cc(F)cc([C@@H](C)OC[C@H](O)CNC(C)(C)CC2Cc3ccccc3C2)c1CCC(=O)O [Example 35] | ≥ 400 | ≤ 200
3 | C[C@@H](OC[C@H](O)CNC(C)(C)CC1Cc2ccccc2C1)c1cc(F)c(F)cc1CCC(=O)O [Example 26] | ≥ 400 | ≤ 200
4 | CC[C@@H](OC[C@H](O)CNC(C)(C)CC1Cc2ccccc2C1)c1cc(F)c(C)cc1CCC(=O)O [Example 60] | ≥ 400 | ≤ 200
5 | C[C@@H](OC[C@H](O)CNC(C)(C)CC1Cc2ccccc2C1)c1ccc(F)cc1CCCCC(=O)O [Example 44] | ≥ 400 | ≤ 200
6 | CCC[C@@H](OC[C@H](O)CNC(C)(C)CC1Cc2ccccc2C1)c1cccc(F)c1CCC(=O)O [Example 53] | ≥ 400 | ≤ 200
7 | CCOc1cccc([C@@H](C)OC[C@H](O)CNC(C)(C)CC2Cc3ccccc3C2)c1CCCCC(=O)O [Example 63] | ≥ 400 | ≤ 200
8 | Cc1cc(-c2ccccc2[C@@H](C)OC[C@H](O)CNC(C)(C)CC2Cc3ccccc3C2)ccc1C(=O)O [Example 3, 2′-[(1R)-1-{[(2R)-3-{[1-(2,3-Dihydro-1H-inden-2-yl)-2-methylpropan-2-yl]amino}-2-hydroxypropyl]oxy}ethyl]-3-methylbiphenyl-4-carboxylic acid] | ≥ 400 | ≤ 200
9 | C[C@@H](OC[C@H](O)CNC(C)(C)CC1Cc2ccccc2C1)c1cc(F)ccc1CCCCC(=O)O [Example 45] | ≥ 400 | ≤ 200
10 | Cc1ccc([C@@H](C)OC[C@H](O)CNC(C)(C)CC2Cc3ccccc3C2)c(CCCCC(=O)O)c1 [Example 43] | ≥ 400 | ≤ 200
11 | C[C@@H](OC[C@H](O)CNC1(CC2Cc3ccccc3C2)CC1)c1ccccc1CCC(=O)O [Example 14, 3-{2-[(1R)-1-{[(2R)-3-{[1-(2,3-Dihydro-1H-inden-2-ylmethyl)cyclopropyl]amino}-2-hydroxypropyl]oxy}ethyl]phenyl}propanoic acid] | ≥ 400 | ≤ 200
